Test results as given in the supplement of paper PMC8728848.
Some of the results follow.

How the values were obtained:
Experiment in all cases: glycan array binding signal (z-score within array); higher = stronger binding
Conditions in all cases: glycan notation: IUPAC condensed, linker removed
[1] = biological target: Fuc(a1-2)Gal(b1-4)GlcNAc(b1-3)Gal(b1-4)GlcNAc(b1-2)Man(a1-3)[Fuc(a1-2)Gal(b1-4)GlcNAc(b1-3)Gal(b1-4)GlcNAc(b1-2)Man(a1-6)]Man(b1-4)GlcNAc(b1-4)GlcNAc
In short: (§1)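 Glycan array data came from 3228 arrays in the Consortium for Functional Glycomics database, and only arrays with an available protein sequence were kept. Glycan names were put into IUPAC-condensed notation, and columns mapping to the same glycan were averaged. The binding signal is a within-array Z-score, averaged across arrays of one protein sequence run at different concentrations or buffers and across linkers. A negative Z-score can be read as non-binding.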

[2] = biological target: Fuc(a1-2)Gal(b1-4)GlcNAc(b1-3)Gal(b1-4)GlcNAc(b1-3)Gal(b1-4)GlcNAc
In short: as §1

[3] = biological target: Fuc(a1-2)Gal(b1-4)GlcNAc(b1-3)GalNAc
In short: as §1

[4] = biological target: Fuc(a1-2)Gal(b1-4)GlcNAc(b1-3)[Fuc(a1-2)Gal(b1-4)GlcNAc(b1-6)]GalNAc
In short: as §1

[5] = biological target: Fuc(a1-2)Gal(b1-4)GlcNAc(b1-3)[Fuc(a1-3)[Gal(b1-4)]GlcNAc(b1-6)]Gal(b1-4)Glc
In short: as §1

[6] = biological target: Fuc(a1-2)Gal(b1-4)GlcNAc(b1-6)GalNAc
In short: as §1

[7] = biological target: Fuc(a1-2)Gal(b1-4)GlcNAc6S
In short: as §1

[8] = biological target: Fuc(a1-2)Gal(b1-4)[Fuc(a1-3)]GlcNAc
In short: as §1

[9] = biological target: Fuc(a1-2)Gal(b1-4)[Fuc(a1-3)]GlcNAc(b1-2)Man(a1-3)[Fuc(a1-2)Gal(b1-4)[Fuc(a1-3)]GlcNAc(b1-2)Man(a1-6)]Man(b1-4)GlcNAc(b1-4)[Fuc(a1-6)]GlcNAc
In short: as §1

[10] = biological target: Fuc(a1-2)Gal(b1-4)[Fuc(a1-3)]GlcNAc(b1-2)[Fuc(a1-2)Gal(b1-4)[Fuc(a1-3)]GlcNAc(b1-4)]Man(a1-3)[Fuc(a1-2)Gal(b1-4)[Fuc(a1-3)]GlcNAc(b1-2)Man(a1-6)]Man(b1-4)GlcNAc(b1-4)GlcNAc
In short: as §1

[11] = biological target: Fuc(a1-2)Gal(b1-4)[Fuc(a1-3)]GlcNAc(b1-3)Gal(b1-4)[Fuc(a1-3)]GlcNAc
In short: as §1

[12] = biological target: Fuc(a1-2)Gal(b1-4)[Fuc(a1-3)]GlcNAc(b1-3)Gal(b1-4)[Fuc(a1-3)]GlcNAc(b1-3)Gal(b1-4)[Fuc(a1-3)]GlcNAc
In short: as §1

[13] = biological target: Fuc(a1-2)Gal(b1-4)[Fuc(a1-3)]GlcNAc(b1-3)GalNAc
In short: as §1

[14] = biological target: Fuc(a1-2)Gal(b1-4)[Fuc(a1-3)]GlcNAc(b1-3)[Neu5Ac(a2-6)Gal(b1-4)GlcNAc(b1-6)]Gal(b1-4)Glc
In short: as §1

[15] = biological target: Fuc(a1-2)Gal3S(b1-4)GlcNAc
In short: as §1

[16] = biological target: Fuc(a1-2)Gal6S(b1-3)GlcNAc
In short: as §1

[17] = biological target: Fuc(a1-2)Gal6S(b1-3)GlcNAc6S
In short: as §1

Fuc(a1-2)Gal6S(b1-4)Glc = biological target: Fuc(a1-2)Gal6S(b1-4)Glc
In short: as §1

[18] = biological target: Fuc(a1-2)Gal6S(b1-4)Glc6S
In short: as §1

Fuc(a1-2)[Gal(a1-3)]Gal = biological target: Fuc(a1-2)[Gal(a1-3)]Gal
In short: as §1

[19] = biological target: Fuc(a1-2)[Gal(a1-3)]Gal(b1-3)GalNAc
In short: as §1

[20] = biological target: Fuc(a1-2)[Gal(a1-3)]Gal(b1-3)GalNAc(b1-3)Gal(a1-4)Gal(b1-4)Glc
In short: as §1

[21] = biological target: Fuc(a1-2)[Gal(a1-3)]Gal(b1-3)GlcNAc
In short: as §1

[22] = biological target: Fuc(a1-2)[Gal(a1-3)]Gal(b1-3)GlcNAc(b1-2)Man(a1-3)[Fuc(a1-2)[Gal(a1-3)]Gal(b1-3)GlcNAc(b1-2)Man(a1-6)]Man(b1-4)GlcNAc(b1-4)GlcNAc
In short: as §1

[23] = biological target: Fuc(a1-2)[Gal(a1-3)]Gal(b1-3)GlcNAc(b1-2)Man(a1-3)[Fuc(a1-2)[Gal(a1-3)]Gal(b1-3)GlcNAc(b1-2)Man(a1-6)]Man(b1-4)GlcNAc(b1-4)[Fuc(a1-6)]GlcNAc
In short: as §1

[24] = biological target: Fuc(a1-2)[Gal(a1-3)]Gal(b1-3)GlcNAc(b1-3)GalNAc
In short: as §1

[25] = biological target: Fuc(a1-2)[Gal(a1-3)]Gal(b1-3)GlcNAc(b1-6)GalNAc
In short: as §1

[26] = biological target: Fuc(a1-2)[Gal(a1-3)]Gal(b1-4)Glc
In short: as §1

[27] = biological target: Fuc(a1-2)[Gal(a1-3)]Gal(b1-4)GlcNAc
In short: as §1

[28] = biological target: Fuc(a1-2)[Gal(a1-3)]Gal(b1-4)GlcNAc(b1-2)Man
In short: as §1

B1: AntigenI/IIC123 (Streptococcus mutans), C9E3B4 (protein)
chain: MASMTGGQQMGRIHFHYFKLAVQPQVNKEIRNNNDINIDRTLVAKQSVVKFQLKTADLPAGRDETTSFVLVDPLPSGYQFNPEATKAASPGFDVTYDNATNTVTFKATAATLATFNADLTKSVATIYPTVVGQVLNDGATYKNNFTLTVNDAYGIKSNVVRVTTPGKPNDPDNPNNNYIKPTKVNKNENGVVIDGKTVLAGSTNYYELTWDLDQYKNDRSSADTIQKGFYYVDDYPEEALELRQDLVKITDANGNEVTGVSVDNYTNLEAAPQEIRDVLSKAGIRPKGAFQIFRADNPREFYDTYVKTGIDLKIVSPMVVKKQMGQTGGSYENQAYQIDFGNGYASNIIINNVPKINPKKDVTLTLDPADTNNVDGQTIPLNTVFNYRLIGGIIPADHSEELFEYNFYDDYDQTGDHYTGQYKVFAKVDITFKDGSIIKSGAELTQYTTAEVDTAKGAITIKFKEAFLRSVSIDSAFQAESYIQMKRIAVGTFENTYINTVNGVTYSSLEHHHHHH
- glycan array binding signal (z-score) [1]: 2.08
- glycan array binding signal (z-score) [2]: -0.137
- glycan array binding signal (z-score) [3]: -0.452
- glycan array binding signal (z-score) [4]: 0.055
- glycan array binding signal (z-score) [5]: -0.804
- glycan array binding signal (z-score) [6]: 3.81
- glycan array binding signal (z-score) [7]: -0.544
- glycan array binding signal (z-score) [8]: 0.474
- glycan array binding signal (z-score) [9]: 1.36
- glycan array binding signal (z-score) [10]: 0.933
- glycan array binding signal (z-score) [11]: -0.165
- glycan array binding signal (z-score) [12]: 1.4
- glycan array binding signal (z-score) [13]: 0.885
- glycan array binding signal (z-score) [14]: -1.45
- glycan array binding signal (z-score) [15]: -0.555
- glycan array binding signal (z-score) [16]: -0.485
- glycan array binding signal (z-score) [17]: -0.336
- glycan array binding signal (z-score) (Fuc(a1-2)Gal6S(b1-4)Glc): -0.633
- glycan array binding signal (z-score) [18]: -0.006
- glycan array binding signal (z-score) (Fuc(a1-2)[Gal(a1-3)]Gal): 0.474
- glycan array binding signal (z-score) [19]: -0.631
- glycan array binding signal (z-score) [20]: -0.386
- glycan array binding signal (z-score) [21]: -0.322
- glycan array binding signal (z-score) [22]: 0.134
- glycan array binding signal (z-score) [23]: 0.417
- glycan array binding signal (z-score) [24]: -0.435
- glycan array binding signal (z-score) [25]: -1.42
- glycan array binding signal (z-score) [26]: -0.358
- glycan array binding signal (z-score) [27]: -0.246
- glycan array binding signal (z-score) [28]: -1
